Laboratory results as given in article PMC10813569.
These are yes or no findings as the source states them, for the method shown. In cells and extracts the contact can be indirect. Some entries that bind do so weakly or less than the wild type.

By UniProt entry, the sequences of proteins in these tests, tags left out.
UniProt Q96H22: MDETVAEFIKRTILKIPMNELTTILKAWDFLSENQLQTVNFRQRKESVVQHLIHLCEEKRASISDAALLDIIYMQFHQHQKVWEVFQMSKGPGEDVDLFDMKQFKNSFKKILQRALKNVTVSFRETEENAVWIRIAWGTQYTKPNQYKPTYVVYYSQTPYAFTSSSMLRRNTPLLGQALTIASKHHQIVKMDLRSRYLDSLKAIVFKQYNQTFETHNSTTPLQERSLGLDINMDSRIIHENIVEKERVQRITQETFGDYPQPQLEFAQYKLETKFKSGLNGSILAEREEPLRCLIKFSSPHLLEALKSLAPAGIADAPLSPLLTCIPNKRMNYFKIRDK
UniProt P16220: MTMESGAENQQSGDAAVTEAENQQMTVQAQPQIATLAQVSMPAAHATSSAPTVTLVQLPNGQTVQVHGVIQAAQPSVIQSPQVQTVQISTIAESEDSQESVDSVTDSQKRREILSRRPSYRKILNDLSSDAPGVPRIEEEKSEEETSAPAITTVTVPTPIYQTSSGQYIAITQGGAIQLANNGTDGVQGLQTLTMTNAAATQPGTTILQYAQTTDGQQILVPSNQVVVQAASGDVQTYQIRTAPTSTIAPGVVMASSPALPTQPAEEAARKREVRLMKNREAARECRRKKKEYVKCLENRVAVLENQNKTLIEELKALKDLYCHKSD

Legend:
GST-CENPN (human) = GST-CENPN (human) (UniProt Q96H22); assay: pull-down; 500 ug GST-CENPN (or GST, control) on glutathione-agarose resin, 3 h; 500 ug HA-CREB protein added, mixed overnight; western blot with anti-GST and anti-HA
[1] = biological target: CENPN (centromere protein N) (human (endogenous in 5-8F)) (UniProt Q96H22); assay: co-IP; endogenous proteins; 5-8F whole-cell lysate (2 mg) in RIPA lysis buffer with protease inhibitor cocktail, protein G beads, indicated antibodies or isotype-matched IgG (2 ug), 2 h; detection by western blot

binding (GST-CENPN (human))	binding [1]	Substance
binds	–	HA-CREB (from UniProt P16220 1-327)
–	binds	CREB (cAMP regulatory element binding protein) (from UniProt P16220 1-327)
